Hit rate of the full screen: of about 53,000 sequences, about 3,700 (7%) were called active.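 Rule for the calls: active = gene knockdowns whose robust z-score for IL-1 alpha signal is at least 2 or at most -2, so actives lie on both sides; inactive = the rest.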 The list shows a part of the results.

The nature of the experiment: Components of the Cytosolic LPS Sensing Pathway: Gene Identification via Genome-wide siRNA Screen.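 Note: robust z of the log signal after scaling to non-targeting control siRNA wells of the plate.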 Particulars: RAW264.7 macrophages, IL-1a HTRF, actives lie on both sides, screened at 100 nM (by protocol), cells primed 5 h with Pam3CSK4 first. The gist of the method:
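Knockdown: 100 nM siRNA, 48h, RAW264.7. Stimulation: Pam3CSK4 5 h, then LipidA via TransIT-TKO 24 h. Output: supernatant IL-1a HTRF, negative-control-normalized, log robust z-score; viability by CellTiter-Glo.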
In general terms: In TR-FRET formats the signal depends on donor and acceptor labels being close together.
Regarding GGUUCCAUGAUAUCGGAACTT against Tbx15, the z-score was inactive: 0.811.

With GGAAAAUGCUCACAUAGUGTT against Pak1ip1, the z-score was inactive: 0.442.

GGUCGAAAGUUGUUUGUCATT against Arr3: the z-score was inactive: -1.55.

Consider GGCCUGUUUGAACUCAUAGTT against Vrk3, for which the z-score was inactive: -1.01.

CCACACUUUUCAGUAUAAUTT against Lin54: the z-score is inactive: 0.897.

Turning to GGGAAAGUCAUUCAUCAAGTT against Stc2, the z-score was inactive: 0.729.

As to GGUGUUGGAAGAGAUGCUGTT against Ap3m2, the z-score is inactive: 0.405.

With GGCUGUAUGACUCAGCUCUTT against Olfr711, the z-score is inactive: -0.912.

For the sequence CGGAUCAUUUACCCUUAUGTT against Kdm5d, the z-score is inactive: -0.407.

With CCCUGCUUGAAUCUCUUCGTT against Tyk2, the z-score was inactive: -0.191.

With GGACCAUGAGAAAUUUAAUTT against Nr2f1, the z-score was inactive: 1.41.

As to GGUUUUUGAGUUUCUGAUUTT against Vps8, the z-score was inactive: 1.28.

Take GGGAAUGCAUAUUAUGCUATT against Dnajc7: the z-score is inactive: -0.16.

Regarding GCCAUGCUGACAAAGCUCATT against Hcn2, the z-score was inactive: -0.969.

On to GGACUCAACUUGAAGAAAATT against Apoo, for which the z-score was inactive: 0.969.

Take GCCGGGAGAAAUAAAUGGUTT against Mif: the z-score is inactive: -0.654.

For GCCCAGUUUGUCACAAAGCTT against Sorl1, the z-score was inactive: -0.276.

Regarding GCCUUCUUCGACCGCUCAUTT against Zfp661, the z-score is inactive: -0.0972.

Regarding GGAUGUGAUCAUAGCAUGGTT against Slc35e1, the z-score was active: -2.07.

Consider GCGCGAAUUCUACUUUGACTT against Kcnf1, for which the z-score is inactive: -1.08.

As for GCAUGUAAGUACUAGAUUATT against Zfp619, the z-score is inactive: -0.0816.

Consider GGGUGAUAAGCAGUUAUACTT against Wdr75, for which the z-score is inactive: 1.33.

Consider CCCUGGGACUGAAUUUGGUTT against Scnn1b, for which the z-score is inactive: -0.199.

Turning to “GGAGACGACUGAAAUUGUCTT against A230083G16Rik”, the z-score was inactive: -1.56.

Consider GGAGAGGAGAGAGGGAAAATT against Sox4, for which the z-score was inactive: -1.65.

Take CCCUUUGACUAACCCUCUCTT against Tfpt: the z-score was inactive: 0.985.

For GACCGUCACCGCUAUGGAUTT against H4c14, the z-score is inactive: 0.781.

On to CCUUGUUGACCCAACCAAATT against Nr1h3, for which the z-score was inactive: -0.314.

Regarding GGAGAUGGAUAAUUACGAGTT against Ift27, the z-score was inactive: 0.344.

Take GGAGAUGACCAAGUACCACTT against Hdac1: the z-score is inactive: 0.544.

In the case of CCUUGAGCAAAUCACACAUTT against Stk32b, the z-score is active: 3.94.

For GGUCUAUCAGUCUAUCAGATT against Btbd1, the z-score is inactive: -0.143.

For the sequence CCGAUUGGCUCGAUACUAUTT against Rps13, the z-score was inactive: -0.0912.

As to GCUGACGAAACCAUUGAAUTT against Ugt1a7c, the z-score was inactive: -0.0843.

For GGAUAAAACUAGAAAUGGGTT against Edem1, the z-score was inactive: 0.00188.

CCUCAUAGCCAGUCUUUUUTT against Pafah2: the z-score is inactive: -0.553.

Take GCACAAGGAAAUCUAUCUATT against Cenpj: the z-score is inactive: 0.693.

As for GGAAGCAUACGAUCCUAUCTT against Catsperd, the z-score was inactive: 1.75.

For the sequence GGUGCAAACUAAAAAUCUUTT against Enc1, the z-score was active: 2.73.

Consider CCACGCUACAUGCAAUGGCTT against Itpka, for which the z-score was inactive: 0.0149.

GCUGUACGAGCAUACUGUGTT against Tnxb: the z-score was inactive: -1.46.

For GGAAGACGAAGACGACAUUTT against Ercc3, the z-score was inactive: 0.715.

Consider GGAAGAAGGGCUUUCUUUGTT against Zbtb24, for which the z-score was inactive: 0.25.

Take GGAGAAUUAAAAUGUGAAGTT against Hsd17b4: the z-score was inactive: 0.161.

For the sequence GCCACCAUUAUGGCUAUGGTT against Pcsk4, the z-score was inactive: 0.497.

GGAAGUGAAGGAAAGCAUCTT against Vwa2: the z-score is inactive: -0.631.

Consider CCGGUUUGGGAAAAAGAAATT against Olfr610, for which the z-score was inactive: -0.865.

For the sequence GGCUUGUUUCUGUGAUGAATT against Zfp330, the z-score was inactive: -1.

On to CCUAUGAAGGUGAAUGCUUTT against Fbxl4, for which the z-score is inactive: 0.721.

Regarding GGACAUUCUCAAAUCUUGATT against Praf2, the z-score was inactive: 0.244.

For the sequence GCUUGUGGAAGAACCUACUTT against Hoxc13, the z-score is inactive: -0.345.

Consider CCACUUUACAGUGUUGAUATT against Eaf1, for which the z-score is inactive: 0.568.

For GUGGUUUGCAUUUUUCUUUTT against Olfr134, the z-score is inactive: -0.626.

GGAACAUAGUAGCAUGCCATT against P3h3: the z-score is inactive: -1.2.

As to CGACUAUCAGCAGCUGAAGTT against Igf1r, the z-score was active: 5.27.

In the case of CGGACAACGUGGCUUUGUCTT against Pstpip1, the z-score was inactive: 0.539.

Take CCUUACGAGAAAAAAUUAGTT against Spats1: the z-score is inactive: -1.02.

On to GGACAUAAAAGUGUCUCGATT against Cldn13, for which the z-score was inactive: 0.16.

Turning to CCCACCAAAUAAUUGGAAUTT against Phf20l1, the z-score is inactive: 1.08.

For GCUAUAUCUACGACAAGGATT against Crip2, the z-score is inactive: -0.859.

On to GGACCAUUCGAAAAAUGCCTT against Cd5, for which the z-score is inactive: 0.769.

GCCUAGUAGAACUCCCAGCTT against Txn2: the z-score was inactive: -1.36.

Turning to CCAAAGCUUGCUUUAAAACTT against Timm21, the z-score was inactive: 0.447.

As for CCAUUAUUUCUACUCUCCCTT against Rpn1, the z-score was inactive: 0.102.

Take CCACCGAAAUCCUUAUUUUTT against Ppargc1a: the z-score is inactive: 0.522.

With GCACUUCCGGAAAAAGCGATT against Mpzl2, the z-score was inactive: 0.495.

For GGCUCUGGACCAACUACUATT against Fam124b, the z-score is inactive: -0.286.

For the sequence GGACAAUCCGAACAUCAAATT against Sval1, the z-score was inactive: -0.403.

The values are drawn from PubChem BioAssay AID1508600 (Functional Genomics Laboratory (NCATS/FGL), 2020).
